Experimental data taken from patent US20090253778A1, “DNA composition against tumor stromal antigen FAP and methods of use thereof” (priority 2006, published 2009).
Some results were stated once for a whole list of compounds, not compound by compound.

System: D2F2 tumor cells
Test: therapeutic setting, i.v. D2F2 metastasis, combination with doxorubicin, life span
Type: in vivo, BALB/c mice
Conditions: single treatment alone

COc1cccc2c1C(=O)c1c(O)c3c(c(O)c1C2=O)C[C@@](O)(C(=O)CO)C[C@@H]3O[C@H]1C[C@H](N)[C@H](O)[C@H](C)O1 [doxorubicin]
time of death: 35 to 45 days
